Source: patent US8268874B2, “Anti-cancer compounds, synthesis thereof, and methods of using same” (University of Notre Dame du Lac, priority 2008, dated 2012)

Test system: 60 cell lines in the NCI assay
Assay: Standard COMPARE analysis of compound 9c against standard agents
Conditions: COMPARE correlation of the standard agent with compound 9c (ND-6732)

| Structure (SMILES) | Correlation, Standard Agents TGI |
| --- | --- |
| COc1cc2cc(c1Cl)N(C)C(=O)C[C@H](OC(=O)[C@H](C)N(C)C(C)=O)[C@]1(C)O[C@H]1[C@H](C)[C@@H]1C[C@@](O)(NC(=O)O1)[C@H](OC)/C=C/C=C(\C)C2 [Maytansine] | 0.611 |
| CC(=O)O[C@H]1C(=O)[C@@]2(C)[C@H]([C@H](OC(=O)c3ccccc3)[C@]3(O)C[C@H](OC(=O)[C@H](O)[C@@H](NC(=O)c4ccccc4)c4ccccc4)C(C)=C1C3(C)C)[C@]1(OC(C)=O)CO[C@@H]1C[C@@H]2O [Paclitaxel] | 0.617 |
| CC[C@]1(O)C[C@@H]2CN(CCc3c([nH]c4ccccc34)[C@@](C(=O)OC)(c3cc4c(cc3OC)N(C)[C@H]3[C@@](O)(C(=O)OC)[C@H](OC(C)=O)[C@]5(CC)C=CCN6CC[C@]43[C@@H]65)C2)C1 [Vinblastine Sulfate] | 0.615 |

Structures can show the parent of a compound that is named as a salt.
